Results are given in words; binding and its absence hold for the method and conditions named. In cells and extracts the contact can be indirect. Binding can be weak; no strength is given.
Assays:
Cdc14A(PD)−3A (human) = Cdc14A(PD)−3A (human) (UniProt Q9UNH5); assay: co-IP; co-immunoprecipitation from cellular mitotic extracts (Supplementary Figure S8)
Cdc14A(PD) (human) = Cdc14A(PD) (human) (UniProt Q9UNH5); assay: as above

Chains of the proteins cited; added tags and fusions are not shown. Lines headed by an entry give the natural chain unless they say otherwise; changes in a name come on top.
UniProt Q9UNH5: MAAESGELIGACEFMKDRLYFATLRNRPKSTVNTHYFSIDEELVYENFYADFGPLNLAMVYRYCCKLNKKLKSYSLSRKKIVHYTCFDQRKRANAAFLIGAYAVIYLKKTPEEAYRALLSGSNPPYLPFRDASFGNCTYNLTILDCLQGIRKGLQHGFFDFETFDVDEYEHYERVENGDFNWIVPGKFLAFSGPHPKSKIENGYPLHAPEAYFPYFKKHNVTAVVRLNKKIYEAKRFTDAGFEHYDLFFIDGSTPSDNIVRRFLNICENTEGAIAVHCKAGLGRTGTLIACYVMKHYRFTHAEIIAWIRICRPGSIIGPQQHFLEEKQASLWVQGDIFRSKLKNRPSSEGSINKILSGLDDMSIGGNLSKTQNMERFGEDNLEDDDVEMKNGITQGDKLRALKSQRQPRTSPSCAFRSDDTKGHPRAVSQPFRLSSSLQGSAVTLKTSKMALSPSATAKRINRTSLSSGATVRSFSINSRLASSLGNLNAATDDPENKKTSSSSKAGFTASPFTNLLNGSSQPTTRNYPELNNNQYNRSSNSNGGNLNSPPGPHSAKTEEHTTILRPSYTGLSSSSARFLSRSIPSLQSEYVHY
UniProt Q9UM11: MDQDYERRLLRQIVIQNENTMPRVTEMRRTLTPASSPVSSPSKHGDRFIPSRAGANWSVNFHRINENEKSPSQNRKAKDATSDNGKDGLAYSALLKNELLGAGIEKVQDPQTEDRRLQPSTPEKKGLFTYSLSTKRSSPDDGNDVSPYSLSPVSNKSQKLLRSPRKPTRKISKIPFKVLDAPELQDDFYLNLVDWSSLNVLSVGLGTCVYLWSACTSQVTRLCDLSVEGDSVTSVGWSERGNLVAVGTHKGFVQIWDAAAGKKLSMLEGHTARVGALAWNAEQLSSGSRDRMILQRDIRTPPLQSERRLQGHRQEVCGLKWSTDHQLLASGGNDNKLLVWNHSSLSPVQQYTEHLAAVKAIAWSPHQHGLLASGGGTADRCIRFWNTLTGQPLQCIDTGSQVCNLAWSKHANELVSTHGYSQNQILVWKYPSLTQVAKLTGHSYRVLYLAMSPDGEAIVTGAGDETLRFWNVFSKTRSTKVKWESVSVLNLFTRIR

## Cdh1, the activator of APC/C (from UniProt Q9UM11 1-496)
Cdc14A(PD)−3A (human)
  binding: binds
Cdc14A(PD) (human)
  binding: binds

From article PMC6082843
